Assay results: the supplement of paper PMC5949888
Most values lie at the floor of the assay. Slopes are relative: functional sequences can read slightly below zero.

test system: Saccharomyces cerevisiae PS128 hsf1 delta, HSF1(1-493) fusion; test: growth estimate (transactivation domain function in HSF1 fusion, heat-shock survival) (a.u. (slope of normalised read count over time)); higher = stronger growth at 37°C, i.e. more transactivation activity; conditions: library: random library
Description: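 Random 60-nt DNA library encoding peptides of up to 20 aa, fused to the C-terminus of yeast HSF1 residues 1-493 (C-terminal TAD deleted) and expressed from the native HSF1 promoter on a CEN plasmid in hsf1-deleted S. cerevisiae PS128. Cells were selected at 37°C on -trp 5-FOA plates for 0, 2, 4, 6 and 8 days and amplicons were sequenced. Growth estimate is the slope of a robust linear fit of total-sum-normalised read counts (normalised to the first time point) over time, using at least 2 replicates. Sequences are classed functional (TAD activity) above a threshold of -0.13, set from stop-codon control sequences.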

Substance	growth estimate
GRASLAVLTLGLYCFGRTEA	< -0.25
GRAVITGAYDGFDCWEADRK	< -0.25
GRAVPRTASEPGHARAMSV	< -0.25
GRAVTQFTREGRG	< -0.25
GRAYPRVYGSDVSPRQNEAL	< -0.25
GRCG	< -0.25
GRCR	< -0.25
GRCRCPAC	< -0.25
GRDRSPCSDSMSELGGRGGD	< -0.25
GRDSLWYSSAIVLHHGMIET	< -0.25
GRE	< -0.25
GREH	< -0.25
GREHRLMKDCQPFC	< -0.25
GRGAGSSARWASNWPPRVGE	< -0.25
GRGCLTIAAGNQAWRCHSHR	< -0.25
GRGDMTENLRYPAPGSP	< -0.25
GRGEALWRHD	< -0.25
GRGGLEGTT	< -0.25
GRGGV	< -0.25
GRGPRGRRAAPYVSGSPEAH	< -0.25
GRGRDATK	< -0.25
GRGSLCRVIHCIKSDVVPAG	< -0.25
GRGWRTTMRKGWTPPPVERG	< -0.25
GRHGGAILSRLRADLNTVPA	< -0.25

An excerpt of these results, with bars between the fields:
Substance | growth estimate
GRGDMTENLRYPAPGSP | < -0.25
GRGEALWRHD | < -0.25
GRGGLEGTT | < -0.25
GRGGV | < -0.25

Further results

Substance	growth estimate
GRHGNRTRLNKLHTGTWYAT	< -0.25
GRHISR	< -0.25
GRHPVRGVCLDYSLL	< -0.25
GRIG	< -0.25
GRIIPYIIKTTESKRRMRVN	< -0.25
GRIKL	< -0.25
GRIRTRWGGRRLCTTHTGPV	< -0.25
GRKASLGGLPRSSSPYAVTD	< -0.25
GRKG	< -0.25
GRKKGFRKPGTTVCRTDEVS	< -0.25
GRKRSLAAARCVVGFGGWS	< -0.25
GRKRSLLGVKKG	< -0.25
GRL	< -0.25
GRLG	< -0.25
GRLGLATIPSHIRTCAHVA	< -0.25
GRLLAHDHFVRCSDTQRTEC	< -0.25
GRLLVC	< -0.25
GRLPKQV	< -0.25
GRLQL	< -0.25
GRLRRPRTLSLIFGE	< -0.25
GRLVAPP	< -0.25
GRLVSGVKAWLRLVRRRAKN	< -0.25
GRMGSDVILRR	< -0.25
GRMGVGGQSPLRMSSLGTRG	< -0.25

Substance	growth estimate
GRNDVVPEISTQG	< -0.25
GRNFDPLGGPNTY	< -0.25
GRNIDFRIYASGLVKGGFKE	< -0.25
GRNYATPGVDRTLSAKKCTV	< -0.25
GRPGVSARVGQRFNWWPAMV	< -0.25
GRPLLWGMWRPRSNGSSVSY	< -0.25
GRPYAKVISCM	< -0.25
GRQGYIPPCTWTNPVDYGGV	< -0.25
GRQKLYNVACNPRVIYYAQP	< -0.25
GRRAISRTLDTTRVVGFLHL	< -0.25
GRRGGNATHR	< -0.25
GRRLKFPHGRQSGRQCFPRG	< -0.25
GRRLKGER	< -0.25
GRRLN	< -0.25
GRRVVLALRVALTPN	< -0.25
GRSARAKASGDLYAVSPHRV	< -0.25
GRSCHSRLDTPVRSLASPNA	< -0.25
GRSE	< -0.25
GRSEYTYSLGHLC	< -0.25
GRSF	< -0.25
GRSIKCPA	< -0.25
GRSKLGIDVRKM	< -0.25
GRSPGGHLEACSTDAMWSTA	< -0.25
GRSPGTLLTAGGRITTVSFN	< -0.25

Substance	growth estimate
GRTENKEMIRSCVITAAQFE	< -0.25
GRTIHIESRQDLRWRLGCAL	< -0.25
GRTLACVLL	< -0.25
GRTLPFGCL	< -0.25
GRTSRFVYLSVRFCKSRQLD	< -0.25
GRTSYRGAVGMLLISWGHN	< -0.25
GRTVAGGRSMPEEIAAIRAP	< -0.25
GRVCVVSTARLNSVLIRANV	< -0.25
GRVIQHKIAGRMHAYLLTSV	< -0.25
GRVRDTTWTSAFLSCAPSVT	< -0.25
GRVVNKVSPGAIGVPVAYPA	< -0.25
GRWDW	< -0.25
GRWFML	< -0.25
GRWVGGKTTAKDSSLAAGGG	< -0.25
GRWVTGSDRCSRPKTCHSAS	< -0.25
GRYCAGICRNREHDFTHESH	-0.231
GRYMLVVR	< -0.25
GRYRSASIRAVVPLVLRSIA	< -0.25
GSACVGVSSGKTRQVRRLYL	-0.25
GSAKLVPTTHVP	< -0.25
GSAPQSLDLGLFGQRDMRVP	< -0.25
GSCEGPSQDLNSPSSYRIVP	< -0.25
GSCFSFTIHPRTRRKMRG	< -0.25
GSCFTQLFAKSWCIPSPVRM	< -0.25
